Binding data for 3 molecules are collected here from PMC10709353.

Amino acid sequences for entries named in this document (tags omitted). A change or cut given only in a name is not applied to a line headed by its entry.
UniProt Q9H4L4: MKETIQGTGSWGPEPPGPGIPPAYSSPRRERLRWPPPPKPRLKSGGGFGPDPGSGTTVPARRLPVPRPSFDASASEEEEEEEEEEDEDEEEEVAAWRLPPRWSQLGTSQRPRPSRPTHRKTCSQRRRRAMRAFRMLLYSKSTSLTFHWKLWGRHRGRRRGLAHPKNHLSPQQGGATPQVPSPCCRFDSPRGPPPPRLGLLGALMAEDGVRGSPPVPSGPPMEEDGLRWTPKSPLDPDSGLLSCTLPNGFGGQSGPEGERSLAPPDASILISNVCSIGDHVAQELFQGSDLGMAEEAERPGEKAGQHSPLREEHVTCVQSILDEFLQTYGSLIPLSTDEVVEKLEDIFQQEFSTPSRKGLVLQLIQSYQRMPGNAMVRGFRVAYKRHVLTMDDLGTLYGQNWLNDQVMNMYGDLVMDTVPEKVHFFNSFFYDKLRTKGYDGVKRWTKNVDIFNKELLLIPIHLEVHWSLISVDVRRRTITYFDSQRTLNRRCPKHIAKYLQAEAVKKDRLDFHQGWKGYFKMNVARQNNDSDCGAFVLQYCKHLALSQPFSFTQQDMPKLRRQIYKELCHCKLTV
UniProt Q8IZL8: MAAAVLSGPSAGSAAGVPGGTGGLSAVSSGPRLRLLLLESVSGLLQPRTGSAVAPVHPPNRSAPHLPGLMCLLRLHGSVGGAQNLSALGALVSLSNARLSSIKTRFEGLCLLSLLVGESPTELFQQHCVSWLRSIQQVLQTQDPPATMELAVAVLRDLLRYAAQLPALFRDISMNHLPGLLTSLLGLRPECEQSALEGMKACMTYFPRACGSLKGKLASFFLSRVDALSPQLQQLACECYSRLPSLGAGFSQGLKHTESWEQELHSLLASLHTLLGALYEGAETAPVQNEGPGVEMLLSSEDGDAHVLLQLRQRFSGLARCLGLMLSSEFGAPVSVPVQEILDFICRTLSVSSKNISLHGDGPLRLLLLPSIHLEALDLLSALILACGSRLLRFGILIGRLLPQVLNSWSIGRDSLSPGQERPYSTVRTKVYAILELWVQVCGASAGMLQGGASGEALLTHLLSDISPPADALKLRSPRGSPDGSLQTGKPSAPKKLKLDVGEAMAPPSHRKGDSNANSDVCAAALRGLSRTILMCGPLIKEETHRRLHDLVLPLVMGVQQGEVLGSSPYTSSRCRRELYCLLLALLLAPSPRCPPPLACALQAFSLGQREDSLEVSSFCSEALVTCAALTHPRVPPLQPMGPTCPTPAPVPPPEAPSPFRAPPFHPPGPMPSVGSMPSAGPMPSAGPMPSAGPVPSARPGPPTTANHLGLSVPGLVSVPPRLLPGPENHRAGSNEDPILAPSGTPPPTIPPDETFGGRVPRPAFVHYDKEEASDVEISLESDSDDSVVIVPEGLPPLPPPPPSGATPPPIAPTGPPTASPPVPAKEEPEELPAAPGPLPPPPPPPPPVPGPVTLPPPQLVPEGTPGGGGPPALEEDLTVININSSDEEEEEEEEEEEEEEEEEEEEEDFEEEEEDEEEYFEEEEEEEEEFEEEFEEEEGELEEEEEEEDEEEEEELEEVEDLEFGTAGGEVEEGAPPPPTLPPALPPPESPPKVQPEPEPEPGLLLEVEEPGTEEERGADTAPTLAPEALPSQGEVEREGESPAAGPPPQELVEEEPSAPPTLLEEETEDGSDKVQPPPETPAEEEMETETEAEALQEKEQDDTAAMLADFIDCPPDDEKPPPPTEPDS

B1: TEX10 (protein, UniProt Q9NXF1 1-929)
chain: MTKKRKRQHDFQKVKLKVGKKKPKLQNATPTNFKTKTIHLPEQLKEDGTLPTNNRKLNIKDLLSQMHHYNAGVKQSALLGLKDLLSQYPFIIDAHLSNILSEVTAVFTDKDANVRLAAVQLLQFLAPKIRAEQISPFFPLVSAHLSSAMTHITEGIQEDSLKVLDILLEQYPALITGRSSILLKNFVELISHQQLSKGLINRDRSQSWILSVNPNRRLTSQQWRLKVLVRLSKFLQALADGSSRLRESEGLQEQKENPHATSNSIFINWKEHANDQQHIQVYENGGSQPNVSSQFRLRYLVGGLSGVDEGLSSTENLKGFIEIIIPLLIECWVEAVPPQLATPVGNGIEREPLQVMQQVLNIISLLWKLSKQQDETHKLESWLRKNYLIDFKHHFMSRFPYVLKEITKHKRKEPNKSIKHCTVLSNNIDHLLLNLTLSDIMVSLANASTLQKDCSWIEMIRKFVTETLEDGSRLNSKQLNRLLGVSWRLMQIQPNREDTETLIKAVYTLYQQRGLILPVRTLLLKFFSKIYQTEELRSCRFRYRSKVLSRWLAGLPLQLAHLGSRNPELSTQLIDIIHTAAARANKELLKSLQATALRIYDPQEGAVVVLPADSQQRLVQLVYFLPSLPADLLSRLSRCCIMGRLSSSLAAMLIGILHMRSSFSGWKYSAKDWLMSDVDYFSFLFSTLTGFSKEELTWLQSLRGVPHVIQTQLSPVLLYLTDLDQFLHHWDVTEAVFHSLLVIPARSQNFDILQSAISKHLVGLTVIPDSTAGCVFGVICKLLDHTCVVSETLLPFLASCCYSLLYFLLTIEKGEAEHLRKRDKLWGVCVSILALLPRVLRLMLQSLRVNRVGPEELPVVGQLLRLLLQHAPLRTHMLTNAILVQQIIKNITTLKSGSVQEQWLTDLHYCFNVYITGHPQGPSALATVY
B2: LAS1L (protein, UniProt Q9Y4W2 1-734)
chain: MSWESGAGPGLGSQGMDLVWSAWYGKCVKGKGSLPLSAHGIVVAWLSRAEWDQVTVYLFCDDHKLQRYALNRITVWRSRSGNELPLAVASTADLIRCKLLDVTGGLGTDELRLLYGMALVRFVNLISERKTKFAKVPLKCLAQEVNIPDWIVDLRHELTHKKMPHINDCRRGCYFVLDWLQKTYWCRQLENSLRETWELEEFREGIEEEDQEEDKNIVVDDITEQKPEPQDDGKSTESDVKADGDSKGSEEVDSHCKKALSHKELYERARELLVSYEEEQFTVLEKFRYLPKAIKAWNNPSPRVECVLAELKGVTCENREAVLDAFLDDGFLVPTFEQLAALQIEYEDGQTEVQRGEGTDPKSHKNVDLNDVLVPKPFSQFWQPLLRGLHSQNFTQALLERMLSELPALGISGIRPTYILRWTVELIVANTKTGRNARRFSAGQWEARRGWRLFNCSASLDWPRMVESCLGSPCWASPQLLRIIFKAMGQGLPDEEQEKLLRICSIYTQSGENSLVQEGSEASPIGKSPYTLDSLYWSVKPASSSFGSEAKAQQQEEQGSVNDVKEEEKEEKEVLPDQVEEEEENDDQEEEEEDEDDEDDEEEDRMEVGPFSTGQESPTAENARLLAQKRGALQGSAWQVSSEDVRWDTFPLGRMPGQTEDPAELMLENYDTMYLLDQPVLEQRLEPSTCKTDTLGLSCGVGSGNCSNSSSSNFEGLLWSQGQLHGLKTGLQLF

Results are given in words; binding and its absence hold for the method and conditions named. Binding seen in cells or lysates may run through a third protein. These calls come from enrichment with a bait or labelling near it, and not all partners need be listed.

In the experiment the target is FLAG-SENP3^C532S (human) (UniProt Q9H4L4). Put plainly: affinity purification with mass spectrometry; anti-FLAG IP of lysates of HEK293T cells transiently expressing FLAG-SENP3^C532S or FLAG-SENP5^C713S against mock control; triplicates; label-free quantification (interactors: log2 ratio >= 1, -log10 p value >= 1.3).
For the molecule PELP1 (from UniProt Q8IZL8 1-1130), the binding entry was “binds”.

Regarding B1, the binding entry is “binds”.

Take B2: the binding entry was “binds”.
